Laboratory results taken from publication PMC11611905, “Recruitment of autophagy initiator TAX1BP1 advances aggrephagy from cargo collection to sequestration” (The EMBO Journal, 2024).
These are yes or no findings as the source states them, for the method shown. Some entries that bind do so weakly or less than the wild type. Tags and fused reporters may be left off the sequences shown.

Chains of the proteins cited; added tags and fusions are not shown.
UniProt O95166: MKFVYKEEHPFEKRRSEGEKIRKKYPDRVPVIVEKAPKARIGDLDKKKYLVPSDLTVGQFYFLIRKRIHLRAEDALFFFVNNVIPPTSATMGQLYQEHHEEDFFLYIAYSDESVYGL

Columns and labels:
GFP-NBR1 (purified) = target: T1, GFP-NBR1 (purified) (UniProt Q14596); assay: microscopy-based protein interaction assay; GFP-NBR1 on GFP-trap beads pre-incubated with mCh-TAX1BP1; 5 µM GABARAP added afterwards and the TAX1BP1 signal followed over time; both purified
T1 sequence: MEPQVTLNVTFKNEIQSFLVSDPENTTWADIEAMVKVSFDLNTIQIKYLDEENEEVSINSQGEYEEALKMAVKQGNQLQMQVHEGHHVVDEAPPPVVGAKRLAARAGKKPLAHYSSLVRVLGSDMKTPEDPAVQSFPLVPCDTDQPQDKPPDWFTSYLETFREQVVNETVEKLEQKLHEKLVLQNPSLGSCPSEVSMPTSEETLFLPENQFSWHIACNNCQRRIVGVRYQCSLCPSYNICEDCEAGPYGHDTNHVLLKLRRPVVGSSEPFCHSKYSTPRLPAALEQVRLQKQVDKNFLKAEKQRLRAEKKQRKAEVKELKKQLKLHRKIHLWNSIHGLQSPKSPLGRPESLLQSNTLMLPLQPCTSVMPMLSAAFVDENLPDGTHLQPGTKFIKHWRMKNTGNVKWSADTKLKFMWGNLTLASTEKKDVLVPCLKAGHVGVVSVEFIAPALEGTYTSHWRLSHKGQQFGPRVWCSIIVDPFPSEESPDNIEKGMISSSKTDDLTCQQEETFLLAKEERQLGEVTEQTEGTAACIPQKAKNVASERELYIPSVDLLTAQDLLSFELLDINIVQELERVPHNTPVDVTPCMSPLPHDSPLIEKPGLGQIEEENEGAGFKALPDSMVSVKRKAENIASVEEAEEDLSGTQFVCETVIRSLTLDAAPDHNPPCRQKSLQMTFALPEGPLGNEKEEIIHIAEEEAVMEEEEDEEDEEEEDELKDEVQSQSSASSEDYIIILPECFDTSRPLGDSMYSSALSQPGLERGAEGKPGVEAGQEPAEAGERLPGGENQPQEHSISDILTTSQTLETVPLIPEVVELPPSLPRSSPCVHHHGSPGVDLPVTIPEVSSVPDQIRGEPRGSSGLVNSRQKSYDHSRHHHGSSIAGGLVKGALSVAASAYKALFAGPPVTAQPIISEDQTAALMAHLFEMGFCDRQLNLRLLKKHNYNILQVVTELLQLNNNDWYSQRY

[1] = target: T2, NBR1 (untagged, purified) (UniProt Q14596); assay: in vitro condensation assay (fluorescence microscopy); 500 nM mCherry-p62 S403E, 250 nM NBR1, 250 nM GFP-TAX1BP1 and GABARAP (0 nM, 500 nM, 1 µM, 5 µM); SEC buffer; 1.5 µM GST-4xUB; both purified
T2 sequence: T1 sequence

binding (GFP-NBR1 (purified)): binds | binding [1]: binds
Substance: GABARAP (from UniProt O95166 1-117)
